± gives the standard deviation of the averaged measurements. Some well-known active drugs show little effect in this data set, so a weak value is uncertain.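 MCF7, a breast cancer cell line, was exposed to pairs of drugs across a grid of doses. Every plate had solvent-only (DMSO) wells as the untreated reference and a doxorubicin series as the total-kill control. No hit threshold is applied to these viability readings.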
System: MCF7
Assay: cell viability relative to DMSO control (raw); higher = more viable cells
Conditions: exposure time 72 h
Procedure: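 MCF7 cells, 1000 cells/well in 384-well plates, treated with 6x6 dose matrices of drug pairs (1:3 serial dilutions, DMSO as lowest dose) for 72 h at 37 °C. Viability read by CellTiter-Glo luminescence, 3 biological replicates. Normalised viability sets 0% at the highest doxorubicin dose and 100% at the 0,0 µM control per combination.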

CNC(=O)c1ccccc1Sc1ccc2c(/C=C/c3ccccn3)n[nH]c2c1 [Axitinib] + C[C@@H](Nc1ncnc2[nH]c(-c3ccc(O)cc3)cc12)c1ccccc1 [PKI-166]
cell viability [%]
Conditions | drug 2 concentration 0 µM | drug 2 concentration 0.123457 µM | drug 2 concentration 0.37037 µM | drug 2 concentration 1.11111 µM | drug 2 concentration 3.33333 µM | drug 2 concentration 10 µM
drug 1 concentration 0.0555556 µM | 94.9 ± 2 | 99.6 ± 3.2 | 104 ± 7.4 | 105 ± 3.8 | 103 ± 9 | 86.9 ± 8.1
drug 1 concentration 0.166667 µM | 99.5 ± 6.2 | 99.3 ± 8.9 | 107 ± 13 | 107 ± 9.6 | 112 ± 15 | 97.2 ± 12
drug 1 concentration 0.5 µM | 105 ± 7.9 | 97.3 ± 5.9 | 96.4 ± 7 | 98.2 ± 5.2 | 100 ± 10 | 99.3 ± 5.2
drug 1 concentration 1.5 µM | 86.5 ± 3.9 | 91.6 ± 5.3 | 92 ± 7.7 | 96.2 ± 9.3 | 87.8 ± 7.1 | 82.1 ± 9.7
drug 1 concentration 4.5 µM | 79.1 ± 6.6 | 78 ± 5.4 | 80.6 ± 4.6 | 77.3 ± 6.3 | 82.1 ± 2.6 | 69.1 ± 4

CC[C@]1(O)C[C@H]2CN(CCc3c([nH]c4ccccc34)[C@@](C(=O)OC)(c3cc4c(cc3OC)N(C=O)[C@H]3[C@@](O)(C(=O)OC)[C@H](OC(C)=O)[C@]5(CC)C=CCN6CC[C@]43[C@@H]65)C2)C1 [Vincristine] + CN1CCN(c2nc(C3=C(c4c[nH]c5ccccc45)C(=O)NC3=O)c3ccccc3n2)CC1 [Sotrastaurin]
cell viability [%]
Conditions | drug 2 concentration 0 µM | drug 2 concentration 0.0123457 µM | drug 2 concentration 0.037037 µM | drug 2 concentration 0.111111 µM | drug 2 concentration 0.333333 µM | drug 2 concentration 1 µM
drug 1 concentration 0.0037037 µM | 77.6 ± 6.8 | 86.9 ± 2.9 | 80.1 ± 8.6 | 74 ± 15 | 76.4 ± 8.9 | 81 ± 12
drug 1 concentration 0.0111111 µM | 83.9 ± 11 | 78.7 ± 17 | 77.4 ± 9.8 | 82.3 ± 14 | 76.8 ± 10 | 77.5 ± 8.9
drug 1 concentration 0.0333333 µM | 80.7 ± 11 | 83.9 ± 17 | 82.1 ± 11 | 83.7 ± 12 | 79.3 ± 6.9 | 74.9 ± 11
drug 1 concentration 0.1 µM | 76.3 ± 13 | 77.7 ± 14 | 73.7 ± 6 | 74.6 ± 8.2 | 71 ± 10 | 69.1 ± 7.5
drug 1 concentration 0.3 µM | 80.3 ± 13 | 80.8 ± 10 | 77 ± 11 | 79.2 ± 12 | 72.7 ± 12 | 69.4 ± 11

Cc1ccc(Nc2nccc(N(C)c3ccc4c(C)n(C)nc4c3)n2)cc1S(N)(=O)=O [Pazopanib] + Cc1c(Cn2c(C)nc3c(C(=O)O)cc(N4CCOCC4)cc32)cccc1C(F)(F)F [GSK2636771]
cell viability [%]
Conditions | drug 2 concentration 0 µM | drug 2 concentration 0.0123457 µM | drug 2 concentration 0.037037 µM | drug 2 concentration 0.111111 µM | drug 2 concentration 0.333333 µM | drug 2 concentration 1 µM
drug 1 concentration 0.617284 µM | 101 ± 21 | 93 ± 12 | 90.5 ± 16 | 94.7 ± 6.2 | 92.7 ± 6.2 | 88.9 ± 8.4
drug 1 concentration 1.85185 µM | 98 ± 4.6 | 86.9 ± 4.9 | 94.3 ± 4.8 | 93.4 ± 8 | 89.1 ± 7.2 | 90.7 ± 14
drug 1 concentration 5.55556 µM | 72.8 ± 15 | 82.8 ± 16 | 88.1 ± 16 | 84 ± 9.5 | 91.2 ± 15 | 81.6 ± 7.3
drug 1 concentration 16.6667 µM | 46.7 ± 9.1 | 49.5 ± 6.6 | 52.2 ± 6.1 | 47.6 ± 4.4 | 50.5 ± 7.5 | 50.9 ± 4.7
drug 1 concentration 50 µM | 34 ± 5.4 | 29.7 ± 2.8 | 28.7 ± 2.3 | 32.6 ± 5.1 | 28.8 ± 5.8 | 29.2 ± 4.5

CC(=O)O[C@H]1CC[C@@]2(C)C(=CC[C@@H]3[C@@H]2CC[C@]2(C)C(c4cccnc4)=CC[C@@H]32)C1 [Abiraterone acetate] + C=C1/C(=C\C=C2/CCC[C@]3(C)[C@@H]([C@H](C)CCCC(C)C)CC[C@@H]23)C[C@@H](O)C[C@@H]1O [Alfacalcidol]
cell viability [%]
Conditions | drug 2 concentration 0 µM | drug 2 concentration 0.617284 µM | drug 2 concentration 1.85185 µM | drug 2 concentration 5.55556 µM | drug 2 concentration 16.6667 µM | drug 2 concentration 50 µM
drug 1 concentration 0.246914 µM | 106 ± 10 | 104 ± 12 | 99.2 ± 16 | 89.5 ± 13 | 81.9 ± 12 | 0.803 ± 0.074
drug 1 concentration 0.740741 µM | 84.5 ± 5.1 | 80.2 ± 3.1 | 87.2 ± 3.2 | 88.9 ± 7.8 | 69.9 ± 9 | 1.15 ± 0.18
drug 1 concentration 2.22222 µM | 98.1 ± 19 | 95.6 ± 15 | 91.9 ± 9.3 | 84.1 ± 9.8 | 77.6 ± 5.5 | 0.721 ± 0.34
drug 1 concentration 6.66667 µM | 85.2 ± 11 | 78.7 ± 7.5 | 77 ± 7.5 | 80.7 ± 11 | 58.2 ± 18 | 0.893 ± 0.15
drug 1 concentration 20 µM | 64.6 ± 7.1 | 67.8 ± 14 | 61.2 ± 13 | 58.2 ± 6.8 | 60.3 ± 2.6 | 0.713 ± 0.13

CC[C@]1(O)C[C@H]2CN(CCc3c([nH]c4ccccc34)[C@@](C(=O)OC)(c3cc4c(cc3OC)N(C=O)[C@H]3[C@@](O)(C(=O)OC)[C@H](OC(C)=O)[C@]5(CC)C=CCN6CC[C@]43[C@@H]65)C2)C1 [Vincristine] + COc1cc(Nc2ncc3c(n2)-c2ccc(Cl)cc2C(c2c(F)cccc2OC)=NC3)ccc1C(=O)O [Alisertib]
cell viability [%]
Conditions | drug 2 concentration 0 µM | drug 2 concentration 0.0617284 µM | drug 2 concentration 0.185185 µM | drug 2 concentration 0.555556 µM | drug 2 concentration 1.66667 µM | drug 2 concentration 5 µM
drug 1 concentration 0.0037037 µM | 79.6 ± 9.3 | 72.7 ± 9.8 | 74.7 ± 3.6 | 83.4 ± 6.9 | 93.4 ± 4.6 | 86.3 ± 3.7
drug 1 concentration 0.0111111 µM | 66.9 ± 7.3 | 67.3 ± 8.3 | 74.2 ± 9.7 | 76 ± 7.9 | 78.1 ± 7 | 86.5 ± 11
drug 1 concentration 0.0333333 µM | 83.6 ± 12 | 79.4 ± 9.4 | 72.2 ± 6.6 | 75.6 ± 7.4 | 80.3 ± 6.8 | 80.4 ± 3.3
drug 1 concentration 0.1 µM | 63.9 ± 1.1 | 65 ± 5.7 | 72.1 ± 9.6 | 72.1 ± 1.6 | 59.7 ± 7.8 | 70.33 ± 0.64
drug 1 concentration 0.3 µM | 71.8 ± 7.2 | 75.8 ± 9.1 | 71.5 ± 8.9 | 70.7 ± 3.9 | 67.9 ± 8.1 | 69.1 ± 6

— the supplement of paper PMC10626197
